Measurements from paper doi:10.1101/2025.11.24.690135.
These are yes or no findings as the source states them, for the method shown. Binding seen in cells or lysates may run through a third protein. A yes stands for co-enrichment or nearness to the bait. Other partners may have been found.

The chains behind the UniProt entries cited, without tags or fusion partners. Where a name states a change or a piece, a line headed by the entry shows the natural chain unless it says otherwise.
UniProt P18848, whole entry, stated change not applied: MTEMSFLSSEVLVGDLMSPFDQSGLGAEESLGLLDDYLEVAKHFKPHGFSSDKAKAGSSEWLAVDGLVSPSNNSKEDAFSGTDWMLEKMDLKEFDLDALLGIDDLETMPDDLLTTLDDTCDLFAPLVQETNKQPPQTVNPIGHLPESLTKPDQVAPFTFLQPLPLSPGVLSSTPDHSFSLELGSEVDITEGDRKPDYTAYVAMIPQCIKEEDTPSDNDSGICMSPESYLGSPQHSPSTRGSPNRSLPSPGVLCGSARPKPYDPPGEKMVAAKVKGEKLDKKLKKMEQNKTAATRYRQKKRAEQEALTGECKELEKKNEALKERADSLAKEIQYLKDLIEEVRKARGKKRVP

Molecular target: activating transcription factor 4, endogenous (human (endogenous in iPSC-RPE)) (UniProt P18848)
Experiment: affinity purification with mass spectrometry

- binding: binds
Substance: HSP90AA1, endogenous (from UniProt P07900 1-732)
